This passage reports z-score and AC50 results from PubChem BioAssay (NCATS).

Usually AC50 stands for the concentration at which the activity in the assay is half-maximal.

This is one part of the list. The main result of the screen is listed elsewhere. These columns were measured beside it and carry no call. Compounds called inactive in the main read-out are mostly missing here. Words in brackets tell the shape of the fitted curve; partial curves, single points and poor fits give uncertain potencies.

The experiment in a line: qHTS for identification of novel therapeutic agents for treatment of microphthalmiaassociated transcription factor (MiT) renal cell carcinoma (RCC) (AID 1963991). The conditions noted are these: CellTiter-Glo, 48 h; for z-score: stronger effect = lower value. A digest of the protocol:
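Three TFE3-fusion RCC lines (UOK109, UOK124, UOK145), 500 cells/well in complete medium, were treated with MIPE 4.0 compounds for 48 hours at 37 C. Viability was by CellTiter-Glo luminescence, normalized to DMSO (100%) and empty wells (0%); curves fitted over 11 concentrations.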

Setting [1] is: TFE3-RCC UOK109 viability, measured here: UOK109 Z-AUC.
Where [2] appears, read: TFE3-RCC viability, measured here: UOK124 Z-AUC.
[3] abbreviates: TFE3-RCC viability, measured here: UOK145 Z-AUC.
The mark [4] stands for this setting: TFE3-RCC viability, measured here: UOK145 cell viability.
Where [5] appears, read: TFE3-RCC viability, measured here: UOK124 cell viability.

For `COc1cc([C@H]2Oc3cc([C@H]4Oc5cc(O)cc(O)c5C(=O)[C@H]4O)ccc3O[C@H]2CO)ccc1O`, the z-score is 1.14 under setting [1], 0.258 under setting [2] and -0.00811 under setting [3]. Moreover, the AC50 under setting [4] was 16.6 µM [falling, partial curve, poor fit].

Consider `CC1(C)SCCN(S(=O)(=O)c2ccc(OCC#CCO)cc2)[C@@H]1C(=O)NO`, for which the z-score is -0.878 under setting [1], 0.796 under setting [2] and 0.918 under setting [3]. Moreover, the AC50 under setting [5] was 0.00526 µM [falling, full curve, poor fit].

As for `CCN1CCN(c2ccc(Nc3cc(N(C)C(=O)Nc4c(Cl)c(OC)cc(OC)c4Cl)ncn3)cc2)CC1`, the z-score is 0.581 under setting [1], -0.21 under setting [2] and 0.604 under setting [3]. Moreover, under setting [4], the AC50 is 8.33 µM [falling, partial curve, poor fit].

As to `Cc1c[nH]c(C=C2C(=O)Nc3ccccc32)c1CCC(=O)O`, the z-score under setting [1] is 0.789, the z-score under setting [2] is -0.412 and the z-score under setting [3] came to 0.52. In addition, the AC50 under setting [5] was 20.9 µM [falling, single point].

For `Clc1ccc(Nc2nnc(Cc3ccncc3)c3ccccc23)cc1`, the z-score by setting is: under setting [1], 0.298; under setting [2], 0.125; under setting [3], -1.07. Under setting [4], the AC50 was 20.9 µM [falling, single point].

Regarding `CC(C)(C)C(=O)Oc1ccc2c(c1)nc(NC(=O)c1cccc([N+](=O)[O-])c1)n2CCCO`, the z-score was 1.03 under setting [1], -0.929 under setting [2] and 0.206 under setting [3]. For the same compound, under setting [5], the half-maximal activity concentration (AC50) was 16.6 µM [falling, partial curve, poor fit].

Regarding `CC(=CC(=O)Nc1ccccc1C(=O)O)c1ccc2ccccc2c1`, the z-score was 0.101 under setting [1], 0.564 under setting [2] and 0.327 under setting [3]. Further, under setting [4], the AC50 was 18.7 µM [falling, partial curve].

As to `c1cc(CN2CCCNCCNCCCNCC2)ccc1CN1CCCNCCNCCCNCC1`, the z-score under setting [1] amounted to 0.271, the z-score under setting [2] amounted to 0.666 and the z-score under setting [3] stood at 0.365. The AC50 under setting [4] was 37.2 µM [falling, single point].

As to `C[C@@H]1CC=CC=CC=CC=C[C@@H](O[C@@H]2O[C@H](C)[C@@H](O)[C@H](N)[C@H]2O)C[C@@H]2O[C@](O)(C[C@@H](O)C[C@@H]3O[C@@H]3C=CC(=O)O1)C[C@H](O)[C@@H]2C(=O)O`, the z-score stood at 0.549 under setting [1], 0.422 under setting [2] and 0.448 under setting [3]. The AC50 under setting [4] was 7.43 µM [falling, full curve].

In the case of `CCCCN(CCCC)CC(O)c1cc(Cl)cc2c1-c1ccc(Cl)cc1C2=Cc1ccc(Cl)cc1` (centres undefined), the z-score is, setting by setting: under setting [1], 0.544; under setting [2], 0.39; under setting [3], 0.63. The AC50 under setting [5] is 37.2 µM [falling, single point].

In the case of `O=C(O)CCCCC(CCSCc1ccccc1)SCc1ccccc1` (centres undefined), the z-score under setting [1] is -0.193, the z-score under setting [2] worked out at 0.225 and the z-score under setting [3] was -0.746. Further, the concentration at half-maximal activity (AC50) under setting [4] is 14.8 µM [falling, partial curve, poor fit].

Turning to `COc1ccc(Nc2nccc(NCCO)n2)cc1`, the z-score was 0.207 under setting [1], 0.0656 under setting [2] and -0.194 under setting [3]. In addition, the AC50 under setting [5] was 0.00148 µM [rising, full curve].

Consider `C[N+](C)(C)CC(=O)O`, for which the z-score is, setting by setting: under setting [1], 0.317; under setting [2], 0.31; under setting [3], 1.61. The AC50 under setting [4] is 37.2 µM [falling, partial curve, poor fit].

Turning to `CCC[C@@H]1C[C@@H](C(=O)N[C@@H]([C@H]2O[C@H](SC)[C@H](O)[C@@H](O)[C@H]2O)[C@@H](C)O)N(C)C1`, the z-score is, setting by setting: under setting [1], 1.75; under setting [2], 0.259; under setting [3], 0.938. Further, the AC50 under setting [5] is 0.0469 µM [rising, full curve, poor fit].

For the compound `O=c1ccn([C@@H]2O[C@H](CO)[C@H](O)[C@@H]2F)c(=O)[nH]1`, the z-score is, setting by setting: under setting [1], 0.194; under setting [2], 0.675; under setting [3], 0.48. In addition, the AC50 under setting [4] was 26.4 µM [falling, partial curve].

Turning to `CC(=O)OC1C(C)OC(Oc2c(-c3ccc(O)cc3)oc3cc(O)cc(O)c3c2=O)C(O)C1OC(C)=O` (centres undefined), the z-score was -0.0661 under setting [1], -0.252 under setting [2] and 1.1 under setting [3]. For the same compound, the AC50 under setting [4] is 16.6 µM [falling, partial curve, poor fit].

On to `CNC(=O)c1ccc(-c2cnc3ncc(Cc4ccc5ncccc5c4)n3n2)cc1F`, for which the z-score is, setting by setting: under setting [1], -0.384; under setting [2], 0.636; under setting [3], -0.205. Further, the AC50 under setting [4] was 33.2 µM [falling, single point].

`O=C(Nc1nc2ccccc2n1CCN1CCOCC1)c1cccc([N+](=O)[O-])c1`: the z-score runs as follows: under setting [1], 0.882; under setting [2], -2.47; under setting [3], 0.745. The AC50 under setting [5] is 18.7 µM [falling, partial curve, poor fit].

Consider `O=C1Nc2ccc(I)cc2C1=Cc1cc(Br)c(O)c(Br)c1`, for which the z-score runs as follows: under setting [1], -0.872; under setting [2], 0.338; under setting [3], 0.837. Further, the AC50 under setting [4] was 9.35 µM [falling, partial curve, poor fit].

In the case of `N[C@@]1(C(=O)O)CS(=O)(=O)[C@H]2[C@H](C(=O)O)[C@H]21`, the z-score runs as follows: under setting [1], 0.364; under setting [2], 0.367; under setting [3], 0.257. The AC50 under setting [4] was 37.2 µM [falling, partial curve, poor fit].

Take `CC(C)(C)c1nc2c3cc[nH]c(=O)c3c3cc(F)ccc3c2[nH]1`: the z-score is, setting by setting: under setting [1], 0.281; under setting [2], -0.603; under setting [3], -0.0236. The AC50 under setting [4] was 3.72 µM [falling, full curve].
